Assay results published in the supplement of paper PMC4749390.
Structures can show the parent of a compound that is named as a salt. This is one part of the list. This data set is noisy: repeats of one test often differ as much as different tests do.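 JEG3 cells stably carry tetracycline-induced wild-type human LRH-1, a heavily sumoylated nuclear receptor. APOC3 and MUC1 are SUMO-sensitive transcripts, raised by SUMO-less LRH-1 or UBC9 knockdown, measured by RT-qPCR against TBP and DMSO controls. A robust Z-score above +2 or below -2 marked a primary hit before toxicity and TBP filtering.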

System: JEG3 expressing hLRH-1
Test: APOC3 transcript change (ddCt vs TBP and DMSO), Z-score over library; higher = higher APOC3 expression
Details: 10 µM; time (hr): 24

Structure (SMILES)	APOC3 transcript change (Z-score)
CCCC(C)(COC(N)=O)COC(=O)NC(C)C (configuration not stated) [Carisoprodol]	1.3
CN(C)C(=O)Oc1cccc([N+](C)(C)C)c1 [Neostigmine bromide]	0.18
CN(C)C(=O)Oc1cc(OC(=O)N(C)C)cc(C(O)CNC(C)(C)C)c1 (configuration not stated) [bambuterol hydrochloride]	-0.941
S=C=NCc1ccccc1 [benzyl isothiocyanate]	-5.75
COP(=O)(OC)OC=C(Cl)Cl [dichlorvos]	-0.399
COP(=O)(OC)C(O)C(Cl)(Cl)Cl (configuration not stated) [trichlorfon]	-0.354
C=CCN1CC[C@]23c4c5ccc(O)c4O[C@H]2C(=O)CC[C@@]3(O)[C@H]1C5 [naloxone hydrochloride]	-0.411
CC[C@@]1(C2O[C@@H](C3O[C@@](O)(CC)[C@H](C)C[C@@H]3C)C[C@@H]2C)CC[C@H]([C@]2(C)CCC3(C[C@H](O)[C@@H](C)[C@@H]([C@H](C)[C@@H](OC)[C@H](C)C(=O)O)O3)O2)O1 (some centres not stated) [monensin sodium (monensin a is shown)]	0.42
CO[C@]12C[C@@H](COC(=O)c3cncc(Br)c3)CN(C)[C@@H]1Cc1cn(C)c3cccc2c13 [nicergoline]	0.208
O=C(NC(=O)c1c(F)cccc1F)Nc1cc(Cl)c(OC(F)(F)C(F)C(F)(F)F)cc1Cl (configuration not stated) [lufenuron]	0.107
NCC(CC(=O)O)c1ccc(Cl)cc1 (racemic) [(±)-Baclofen]	-0.0733
CN(C)[C@@H]1C(=O)C(C(N)=O)=C(O)[C@@]2(O)C(O)=C3C(=O)c4c(O)ccc(Cl)c4[C@@](C)(O)[C@H]3C[C@@H]12 [chlortetracycline]	1.09
CCC1(c2ccc(N)cc2)CCC(=O)NC1=O (racemic) [(±)-p-Aminoglutethimide]	-0.475
CN1CCN(C(=O)O[C@H]2c3nccnc3C(=O)N2c2ccc(Cl)cn2)CC1 [eszopiclone]	0.57
NC(=O)C[S@@](=O)C(c1ccccc1)c1ccccc1 [armodafinil]	0.603
CN1C2CC[C@@H]1C[C@@H](OC(=O)[C@H](CO)c1ccccc1)C2 [hyoscyamine]	-1.49
CN(C)[C@@H]1C(=O)C(C(N)=O)=C(O)[C@@]2(O)C(O)=C3C(=O)c4c(O)cccc4[C@@](C)(O)[C@H]3[C@H](O)[C@@H]12 [oxytetracycline]	0.0202
NCc1cccnc1 [picolamine]	-0.731
CC(NC(C)(C)C)C(=O)c1cccc(Cl)c1 (configuration not stated) [Bupropion hydrochloride]	0.129
NC1C[C@H]1c1ccccc1 (some centres not stated) [tranylcypromine sulfate]	-1.35
CCCN1C[C@H](CSC)C[C@@H]2c3cccc4[nH]cc(c34)C[C@H]21 [Pergolide methanesulfonate]	0.154
CN(C)[C@@H]1C(=O)C(C(N)=O)=C(O)[C@@]2(O)C(O)=C3C(=O)c4c(O)cccc4[C@@](C)(O)[C@H]3C[C@@H]12 [tetracycline hydrochloride]	-0.443
CCOC(=O)CC(SP(=S)(OC)OC)C(=O)OCC (configuration not stated) [malathion]	0.234
CC(N)Cc1ccc(O)cc1 (configuration not stated) [hydroxyamphetamine hydrobromide]	-0.284
CC(C)[N+](C)(CCC(C(N)=O)(c1ccccc1)c1ccccc1)C(C)C [isopropamide iodide]	-0.118
O=C1CC[C@@]2(O)[C@H]3Cc4ccc(O)c5c4[C@@]2(CCN3CC2CC2)[C@H]1O5 [naltrexone hydrochloride]	-0.409

A second format for three compounds above:

| Structure (SMILES) | APOC3 transcript change (Z-score) |
| --- | --- |
| C=CCN1CC[C@]23c4c5ccc(O)c4O[C@H]2C(=O)CC[C@@]3(O)[C@H]1C5 [naloxone hydrochloride] | -0.411 |
| NC1C[C@H]1c1ccccc1 (some centres not stated) [tranylcypromine sulfate] | -1.35 |
| O=C1CC[C@@]2(O)[C@H]3Cc4ccc(O)c5c4[C@@]2(CCN3CC2CC2)[C@H]1O5 [naltrexone hydrochloride] | -0.409 |

(further entries)

Structure (SMILES)	APOC3 transcript change (Z-score)
CC(C)CC(N(C)C)C1(c2ccc(Cl)cc2)CCC1 (configuration not stated) [sibutramine hydrochloride]	0.985
N#Cc1nn(-c2c(Cl)cc(C(F)(F)F)cc2Cl)c(N)c1S(=O)C(F)(F)F (configuration not stated) [fipronil]	-1.09
CCCCOC(=O)c1ccccc1C(=O)OCCCC [dibutyl phthalate]	-0.987
O=P1(N(CCCl)CCCl)NCCCO1 (configuration not stated) [cyclophosphamide hydrate]	0.185
CCOP(=S)(OCC)Oc1ccc2c(C)c(Cl)c(=O)oc2c1 [coumophos]	-1.45
Cl[C@H]1[C@H](Cl)[C@@H](Cl)[C@@H](Cl)[C@H](Cl)[C@H]1Cl [lindane]	4.2
O=c1cccc2n1C[C@@H]1CNC[C@H]2C1 [cytisine]	-1.12
Oc1ccc2c3c1O[C@H]1[C@@H](O)CC[C@@]4(O)[C@@H](C2)N(CC2CCC2)CC[C@]314 [nalbuphine hydrochloride]	-0.357
CC1(C)C(C=C(Cl)Cl)C1C(=O)OC(C#N)c1cccc(Oc2ccccc2)c1 (configuration not stated) [cypermethrin]	0.507
Cc1ccc(-c2nc3ccc(C)cn3c2CC(=O)N(C)C)cc1 [zolpidem]	1.65
CC(C)c1cccc(C(C)C)c1O [Propofol]	-0.31
O=[N+]([O-])c1cc([As](=O)(O)O)ccc1O [roxarsone]	0.665
COC(C)(C)CCC[C@H](C)C/C=C/C(C)=C/C(=O)OC(C)C [methoprene (s)]	0.22
CCCC(C)C1(CC)C(=O)N=C(S)NC1=O (configuration not stated) [thiopental sodium]	-0.117
C#CC(C)(O)CC (configuration not stated) [meparfylon]	0.0911
CC(=O)NC1CCSC1=O (configuration not stated) [citiolone]	0.238
CNC(=O)Oc1ccccc1OC(C)C [propoxur]	-0.985
c1ccc2c(c1)OCC(C1=NCCN1)O2 (configuration not stated) [idazoxan hydrochloride]	-0.479
CCOP(=S)(OCC)Oc1nc(Cl)c(Cl)cc1Cl [chlorpyrifos]	-0.417
c1ccc2c(c1)Nc1ccccc1S2 [phenothiazine]	0.413
CCCCCCCCCCCCCCCC[n+]1ccccc1 [cetylpyridinium chloride]	-0.0196
[NH2][Pt]1([NH2])[O]C(=O)C2(CCC2)C(=O)[O]1 [carboplatin]	0.341
CCOc1cc(C=O)ccc1O [ethyl vanillin]	-0.396
CCNC1(c2cccs2)CCCCC1=O (configuration not stated) [tiletamine hydrochloride]	-1.44
C=C1C[C@@H]2[C@H](CC[C@]3(C)C(=O)CC[C@@H]23)[C@@]2(C)C=CC(=O)C=C12 [exemestane]	0.756
COC(=O)C(c1ccccc1)C1CCCCN1 (configuration not stated) [methylphenidate hydrochloride]	0.684
